Literature values in patent US20250114377A1, “TWO-PRONGED TREATMENT FOR NIEMANN PICK TYPE C DISEASE” (UNIVERSITY OF NOTRE DAME DU LAC, priority 2022, published 2025).

Conditions: mice harboring a transgene for Cyp27a; personal communication; cited from earlier work

## C[C@@H](CO)CCC[C@@H](C)[C@H]1CC[C@H]2[C@@H]3CC=C4C[C@@H](O)CC[C@]4(C)[C@H]3CC[C@]12C [27-HC, 27-hydroxycholesterol]
  Blood levels of 27-HC: ~500 ng/mL
  Blood levels of 27-HC, fold higher than normal: 5 ×
